Some of the results follow.
Legend:
Assay in all cases: log2 fold change, soluble protein after heating vs DMSO (PISA); higher = thermal stabilisation; K562 lysate, 10 uM; active = over 0.2 and 3.5 SD of the protein, either way, in both replicates (recomputed)
[1] = compound: NCC(=O)Nc1ccc(-n2nc(C(F)(F)F)cc2-c2ccc3c(ccc4ccccc43)c2)cc1
In short: (§1)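 Values give the log-two fold change in thermal stability against solvent controls, from duplicates. Crude K562 extract at 1 mg/mL protein, made by dounce homogenisation in PBS pH 7.4 with 1 mM MgCl2, was treated with 10 μM compound for 30 min. After 3 min heating across 48°C-58°C, aliquots were pooled, adjusted to 0.5% NP-40 at 4°C and centrifuged at 21,000xg for 90 min. The supernatant was measured by TMTpro 16plex LC-MS/MS with channel sums equalised.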

Chains of the proteins cited; added tags and fusions are not shown. Lines headed by an entry give the natural chain unless they say otherwise; changes in a name come on top.
UniProt O14880: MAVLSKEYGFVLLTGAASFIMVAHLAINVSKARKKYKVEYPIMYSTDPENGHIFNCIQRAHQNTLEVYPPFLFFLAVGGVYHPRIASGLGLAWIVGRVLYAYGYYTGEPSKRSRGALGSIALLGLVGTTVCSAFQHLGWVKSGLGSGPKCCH
UniProt Q9HCE1: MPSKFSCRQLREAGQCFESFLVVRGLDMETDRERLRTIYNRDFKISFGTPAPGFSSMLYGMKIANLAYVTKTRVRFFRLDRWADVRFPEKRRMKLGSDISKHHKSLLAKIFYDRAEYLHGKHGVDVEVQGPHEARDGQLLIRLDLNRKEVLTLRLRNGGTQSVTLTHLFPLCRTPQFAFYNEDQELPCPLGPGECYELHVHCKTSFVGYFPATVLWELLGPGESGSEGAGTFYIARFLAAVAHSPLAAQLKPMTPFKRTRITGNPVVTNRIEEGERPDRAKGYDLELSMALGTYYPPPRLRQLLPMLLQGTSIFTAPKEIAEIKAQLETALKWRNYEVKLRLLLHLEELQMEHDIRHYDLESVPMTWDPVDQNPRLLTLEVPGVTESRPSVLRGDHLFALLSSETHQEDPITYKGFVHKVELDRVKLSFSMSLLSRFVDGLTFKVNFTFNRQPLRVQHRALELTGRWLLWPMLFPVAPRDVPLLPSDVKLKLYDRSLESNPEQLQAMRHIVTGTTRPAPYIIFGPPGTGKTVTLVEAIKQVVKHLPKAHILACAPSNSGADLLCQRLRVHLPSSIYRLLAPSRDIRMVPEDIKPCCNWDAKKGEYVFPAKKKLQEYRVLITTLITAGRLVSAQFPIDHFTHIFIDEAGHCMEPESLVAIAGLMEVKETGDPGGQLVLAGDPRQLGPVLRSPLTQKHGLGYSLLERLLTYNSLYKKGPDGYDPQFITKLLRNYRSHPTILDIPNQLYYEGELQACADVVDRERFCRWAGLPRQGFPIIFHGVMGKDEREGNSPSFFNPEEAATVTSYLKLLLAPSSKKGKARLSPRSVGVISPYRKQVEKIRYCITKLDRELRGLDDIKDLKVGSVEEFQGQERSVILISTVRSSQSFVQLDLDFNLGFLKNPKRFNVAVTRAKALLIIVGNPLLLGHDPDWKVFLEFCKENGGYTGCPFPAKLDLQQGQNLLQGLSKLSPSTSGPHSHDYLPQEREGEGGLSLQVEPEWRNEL
UniProt Q86YT6, whole entry, looked up: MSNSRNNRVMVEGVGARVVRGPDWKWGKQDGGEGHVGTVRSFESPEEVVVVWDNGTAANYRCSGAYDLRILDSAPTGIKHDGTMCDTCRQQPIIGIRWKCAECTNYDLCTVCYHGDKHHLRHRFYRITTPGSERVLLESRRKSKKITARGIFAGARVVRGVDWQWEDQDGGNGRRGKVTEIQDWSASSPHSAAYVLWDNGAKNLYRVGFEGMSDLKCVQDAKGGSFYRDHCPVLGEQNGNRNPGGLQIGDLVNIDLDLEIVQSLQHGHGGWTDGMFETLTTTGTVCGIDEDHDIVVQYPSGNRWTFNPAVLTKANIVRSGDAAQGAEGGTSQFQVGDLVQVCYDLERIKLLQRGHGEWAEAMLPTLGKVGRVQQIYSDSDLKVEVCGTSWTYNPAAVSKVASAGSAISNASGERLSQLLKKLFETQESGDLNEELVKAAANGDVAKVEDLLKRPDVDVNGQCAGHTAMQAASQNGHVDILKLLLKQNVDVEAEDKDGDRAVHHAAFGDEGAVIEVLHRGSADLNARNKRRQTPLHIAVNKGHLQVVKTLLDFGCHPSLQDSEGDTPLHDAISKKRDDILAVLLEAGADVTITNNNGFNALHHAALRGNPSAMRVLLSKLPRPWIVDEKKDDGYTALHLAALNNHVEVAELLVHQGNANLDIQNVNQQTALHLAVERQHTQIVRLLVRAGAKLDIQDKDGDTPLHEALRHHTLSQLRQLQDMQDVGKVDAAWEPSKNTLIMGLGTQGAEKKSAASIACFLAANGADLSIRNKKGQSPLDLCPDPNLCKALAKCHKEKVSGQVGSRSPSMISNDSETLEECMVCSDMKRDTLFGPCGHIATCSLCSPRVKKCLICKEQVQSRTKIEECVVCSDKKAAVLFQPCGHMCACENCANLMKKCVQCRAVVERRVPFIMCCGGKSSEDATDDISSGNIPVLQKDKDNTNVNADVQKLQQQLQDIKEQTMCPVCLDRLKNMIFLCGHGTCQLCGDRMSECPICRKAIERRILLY
UniProt Q7Z3K6: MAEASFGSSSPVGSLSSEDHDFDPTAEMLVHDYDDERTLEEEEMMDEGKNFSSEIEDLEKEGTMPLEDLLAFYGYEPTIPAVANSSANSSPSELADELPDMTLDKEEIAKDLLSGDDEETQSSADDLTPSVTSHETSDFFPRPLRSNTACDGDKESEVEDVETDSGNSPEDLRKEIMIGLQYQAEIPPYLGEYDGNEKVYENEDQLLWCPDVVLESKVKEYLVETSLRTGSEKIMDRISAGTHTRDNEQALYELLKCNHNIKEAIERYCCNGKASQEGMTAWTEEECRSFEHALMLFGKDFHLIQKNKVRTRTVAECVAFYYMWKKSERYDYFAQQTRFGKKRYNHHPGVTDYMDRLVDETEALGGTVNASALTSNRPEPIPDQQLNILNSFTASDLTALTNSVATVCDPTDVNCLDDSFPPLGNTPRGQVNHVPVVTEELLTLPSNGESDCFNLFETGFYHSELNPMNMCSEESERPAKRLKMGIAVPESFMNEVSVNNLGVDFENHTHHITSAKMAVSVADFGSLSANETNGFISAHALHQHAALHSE
UniProt Q9H081: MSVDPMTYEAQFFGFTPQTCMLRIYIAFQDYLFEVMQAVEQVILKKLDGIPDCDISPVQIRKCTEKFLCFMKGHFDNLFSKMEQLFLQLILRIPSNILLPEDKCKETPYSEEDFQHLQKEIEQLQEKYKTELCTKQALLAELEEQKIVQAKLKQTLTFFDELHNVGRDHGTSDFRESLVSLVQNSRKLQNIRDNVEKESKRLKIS
UniProt Q9NPA3, whole entry, looked up: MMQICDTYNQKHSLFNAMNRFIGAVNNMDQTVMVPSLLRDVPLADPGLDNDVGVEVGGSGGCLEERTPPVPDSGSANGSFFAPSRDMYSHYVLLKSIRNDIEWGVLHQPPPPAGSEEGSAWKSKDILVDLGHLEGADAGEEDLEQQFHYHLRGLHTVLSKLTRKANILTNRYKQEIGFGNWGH
UniProt O95297: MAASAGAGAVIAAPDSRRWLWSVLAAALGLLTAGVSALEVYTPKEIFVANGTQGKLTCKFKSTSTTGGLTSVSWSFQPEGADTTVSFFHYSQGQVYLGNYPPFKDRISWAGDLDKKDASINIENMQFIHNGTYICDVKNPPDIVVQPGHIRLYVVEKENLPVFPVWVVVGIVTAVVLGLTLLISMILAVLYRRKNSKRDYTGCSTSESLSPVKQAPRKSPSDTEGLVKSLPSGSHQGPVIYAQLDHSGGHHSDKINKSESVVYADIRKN
UniProt Q15014, whole entry, looked up: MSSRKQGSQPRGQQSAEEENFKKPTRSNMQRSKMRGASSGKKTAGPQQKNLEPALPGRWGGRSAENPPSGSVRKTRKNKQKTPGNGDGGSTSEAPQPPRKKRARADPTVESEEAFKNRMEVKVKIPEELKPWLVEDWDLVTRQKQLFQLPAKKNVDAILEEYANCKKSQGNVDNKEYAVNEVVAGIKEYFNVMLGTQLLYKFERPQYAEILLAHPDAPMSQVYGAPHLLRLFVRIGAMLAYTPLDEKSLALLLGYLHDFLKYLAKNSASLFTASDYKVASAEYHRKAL
UniProt O95563: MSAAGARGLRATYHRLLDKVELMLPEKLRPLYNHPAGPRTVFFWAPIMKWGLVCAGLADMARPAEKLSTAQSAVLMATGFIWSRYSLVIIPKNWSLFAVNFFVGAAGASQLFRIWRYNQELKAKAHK
UniProt Q8IYU8: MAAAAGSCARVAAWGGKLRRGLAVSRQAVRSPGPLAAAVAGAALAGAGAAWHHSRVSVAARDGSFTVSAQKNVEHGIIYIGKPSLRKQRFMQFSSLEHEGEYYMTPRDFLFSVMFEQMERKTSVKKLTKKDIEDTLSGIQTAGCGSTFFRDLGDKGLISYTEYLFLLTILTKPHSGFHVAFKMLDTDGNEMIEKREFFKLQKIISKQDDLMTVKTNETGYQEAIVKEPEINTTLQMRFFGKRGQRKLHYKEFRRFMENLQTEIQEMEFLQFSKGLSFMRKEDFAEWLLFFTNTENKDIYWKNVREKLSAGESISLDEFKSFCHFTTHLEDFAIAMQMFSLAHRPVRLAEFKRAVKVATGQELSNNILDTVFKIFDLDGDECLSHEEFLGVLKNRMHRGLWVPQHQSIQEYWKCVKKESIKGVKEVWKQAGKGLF
UniProt Q9H000: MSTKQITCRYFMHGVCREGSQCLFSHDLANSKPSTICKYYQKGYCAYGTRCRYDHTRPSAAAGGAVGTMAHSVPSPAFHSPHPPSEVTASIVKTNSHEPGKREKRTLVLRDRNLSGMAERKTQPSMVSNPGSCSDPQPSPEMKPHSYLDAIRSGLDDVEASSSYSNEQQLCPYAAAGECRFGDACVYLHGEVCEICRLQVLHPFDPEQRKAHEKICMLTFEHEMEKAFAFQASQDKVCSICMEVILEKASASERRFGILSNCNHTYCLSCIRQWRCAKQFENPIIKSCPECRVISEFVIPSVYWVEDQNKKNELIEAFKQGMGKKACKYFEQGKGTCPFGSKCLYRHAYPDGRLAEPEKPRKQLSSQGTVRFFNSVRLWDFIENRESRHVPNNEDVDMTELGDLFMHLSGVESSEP
UniProt Q99797: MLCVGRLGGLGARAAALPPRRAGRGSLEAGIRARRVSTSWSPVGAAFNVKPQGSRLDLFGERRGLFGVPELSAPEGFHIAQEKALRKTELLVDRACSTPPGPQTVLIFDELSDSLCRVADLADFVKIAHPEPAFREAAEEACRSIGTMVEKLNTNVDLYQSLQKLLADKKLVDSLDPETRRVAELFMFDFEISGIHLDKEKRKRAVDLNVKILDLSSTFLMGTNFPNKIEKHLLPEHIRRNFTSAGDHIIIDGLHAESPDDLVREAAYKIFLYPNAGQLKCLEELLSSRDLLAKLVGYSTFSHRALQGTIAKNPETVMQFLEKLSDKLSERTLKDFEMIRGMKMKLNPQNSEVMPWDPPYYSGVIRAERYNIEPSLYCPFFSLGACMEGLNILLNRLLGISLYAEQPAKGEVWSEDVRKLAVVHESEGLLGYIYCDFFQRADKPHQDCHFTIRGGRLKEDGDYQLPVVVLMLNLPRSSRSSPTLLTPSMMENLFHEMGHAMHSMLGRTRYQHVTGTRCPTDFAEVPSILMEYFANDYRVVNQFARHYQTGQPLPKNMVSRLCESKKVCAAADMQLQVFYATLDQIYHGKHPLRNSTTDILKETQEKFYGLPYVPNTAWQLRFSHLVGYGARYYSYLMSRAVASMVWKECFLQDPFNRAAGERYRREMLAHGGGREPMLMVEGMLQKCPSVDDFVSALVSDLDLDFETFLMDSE
UniProt Q13064: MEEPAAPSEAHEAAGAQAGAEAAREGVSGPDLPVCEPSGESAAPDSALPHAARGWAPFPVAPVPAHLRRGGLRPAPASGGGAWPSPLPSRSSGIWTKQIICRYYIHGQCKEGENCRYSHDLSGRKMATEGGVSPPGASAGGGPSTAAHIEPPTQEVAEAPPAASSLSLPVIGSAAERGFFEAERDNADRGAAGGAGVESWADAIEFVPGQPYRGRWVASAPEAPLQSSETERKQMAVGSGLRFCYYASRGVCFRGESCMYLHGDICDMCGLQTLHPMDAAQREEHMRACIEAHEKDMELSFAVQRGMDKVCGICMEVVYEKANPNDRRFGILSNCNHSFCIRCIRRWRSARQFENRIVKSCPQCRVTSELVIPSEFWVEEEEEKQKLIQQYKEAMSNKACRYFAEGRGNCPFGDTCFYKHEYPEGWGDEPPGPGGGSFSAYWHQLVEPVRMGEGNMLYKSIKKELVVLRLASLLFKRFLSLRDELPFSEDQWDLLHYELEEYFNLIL
UniProt O00566: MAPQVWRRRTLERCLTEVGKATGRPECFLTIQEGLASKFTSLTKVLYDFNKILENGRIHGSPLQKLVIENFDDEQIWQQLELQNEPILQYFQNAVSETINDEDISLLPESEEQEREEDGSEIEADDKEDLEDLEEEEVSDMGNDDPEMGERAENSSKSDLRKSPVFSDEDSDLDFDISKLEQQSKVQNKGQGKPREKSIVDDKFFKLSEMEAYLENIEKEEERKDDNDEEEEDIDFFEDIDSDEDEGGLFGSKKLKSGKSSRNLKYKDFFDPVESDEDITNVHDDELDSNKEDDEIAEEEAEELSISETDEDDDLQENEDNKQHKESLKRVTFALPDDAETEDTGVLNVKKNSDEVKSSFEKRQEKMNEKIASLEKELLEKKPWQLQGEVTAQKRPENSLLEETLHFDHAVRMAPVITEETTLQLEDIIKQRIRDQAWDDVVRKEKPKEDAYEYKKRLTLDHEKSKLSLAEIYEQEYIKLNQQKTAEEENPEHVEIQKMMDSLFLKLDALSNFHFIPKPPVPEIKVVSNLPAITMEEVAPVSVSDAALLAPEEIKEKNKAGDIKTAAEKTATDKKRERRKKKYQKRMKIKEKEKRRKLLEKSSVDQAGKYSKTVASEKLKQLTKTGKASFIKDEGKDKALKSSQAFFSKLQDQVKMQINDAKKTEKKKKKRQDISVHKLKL

[2] = compound: O=C(CCCCCCC(=O)Nc1ccccc1)NO [vorinostat]
In short: as §1

[3] = compound: O=C(O)c1ccc2c(c1)nc(Nc1cccc(Cl)c1)c1ccncc12 [silmitasertib]
In short: as §1

[4] = compound: O=C1NC(=O)C(c2cnc3ccccn23)=C1c1cn2c3c(cc(F)cc13)CN(C(=O)N1CCCCC1)CC2
In short: as §1

[5] = compound: c1cn2cc(-c3ccc4cn[nH]c4c3)nc(Nc3ccc(N4CCOCC4)cc3)c2n1 [entospletinib]
In short: as §1

Measured: log2 fold change

MGST3 (UniProt O14880)
inactive: [1] -0.025 | [2] 0.128 | [3] 0 | [4] 0.033 | [5] 0.041

MRM1 (UniProt Q6IN84)
inactive: [1] 0.012 | [2] -0.036 | [3] 0.086 | [4] 0.019 | [5] 0.047

MOV10 (UniProt Q9HCE1)
inactive: [1] 0.013 | [2] 0.066 | [3] -0.009 | [4] -0.001 | [5] 0.007

MIB1 (UniProt Q86YT6)
inactive: [1] 0.026 | [2] -0.074 | [3] 0.002 | [4] 0.077 | [5] -0.009

MKLN1 (UniProt Q9UL63)
inactive: [1] 0.021 | [2] -0.097 | [3] 0.001 | [4] 0.014 | [5] 0.005

MIA2 (UniProt Q96PC5)
inactive: [1] 0.054 | [2] -0.014 | [3] -0.064 | [4] -0.038 | [5] -0.062

MIER3 isoform 2 (UniProt Q7Z3K6)
inactive: [1] -0.044 | [2] -0.226 | [3] 0.01 | [4] -0.022 | [5] -0.017

MIS12 (UniProt Q9H081)
inactive: [1] -0.022 | [2] -0.2 | [3] 0.007 | [4] 0.019 | [5] -0.002

MRPL15 (UniProt Q9P015)
inactive: [1] 0.068 | [2] 0.137 | [3] -0.071 | [4] -0.02 | [5] -0.061

MOCS2 (UniProt O96007)
inactive: [1] -0.044 | [2] 0.082 | [3] -0.065 | [4] 0.007 | [5] 0.01

MID1IP1 (UniProt Q9NPA3)
inactive: [1] 0 | [2] -0.229 | [3] -0.067 | [4] 0.008 | [5] 0.038

MPZL1 (UniProt O95297)
inactive: [1] -0.059 | [2] 0.022 | [3] -0.004 | [4] 0.021 | [5] 0.017

MORF4L2 (UniProt Q15014)
inactive: [1] 0.019 | [2] 0.005 | [3] 0.025 | [4] 0.054 | [5] 0.018

MPC2 (UniProt O95563)
inactive: [1] 0.055 | [2] 0.02 | [3] 0.007 | [4] 0.006 | [5] 0.004

MRPL2 (UniProt Q5T653)
inactive: [1] 0.16 | [2] 0.143 | [3] 0.005 | [4] -0.022

MICU2 (UniProt Q8IYU8)
inactive: [1] 0.012 | [2] -0.179 | [3] 0.031 | [4] -0.009 | [5] -0.089

MKRN2 (UniProt Q9H000)
inactive: [1] -0.051 | [2] -0.166 | [3] 0.043 | [4] -0.048 | [5] 0.001

MRPL12 (UniProt P52815)
inactive: [1] -0.07 | [2] 0.116 | [3] -0.023 | [4] 0 | [5] -0.152

MICU1 isoform 3 (UniProt Q9BPX6)
inactive: [1] -0.085 | [2] -0.133 | [3] 0.065 | [4] -0.003 | [5] -0.019

MIPEP (UniProt Q99797)
inactive: [1] 0.005 | [2] -0.043 | [3] 0.007 | [4] -0.021 | [5] -0.028

MPLKIP (UniProt Q8TAP9)
inactive: [1] 0.043 | [2] -0.041 | [3] 0.085 | [4] -0.113 | [5] 0.05

MKRN3 (UniProt Q13064)
inactive: [1] 0.045 | [2] -0.123 | [3] 0.206 | [4] -0.008

2 neighbouring records from above, for reference:
MIPEP (UniProt Q99797)
inactive: [1] 0.005 | [2] -0.043 | [3] 0.007 | [4] -0.021 | [5] -0.028

MPLKIP (UniProt Q8TAP9)
inactive: [1] 0.043 | [2] -0.041 | [3] 0.085 | [4] -0.113 | [5] 0.05

Following part:

MPHOSPH10 (UniProt O00566)
inactive: [1] -0.004 | [2] 0.174 | [3] -0.126 | [4] 0.036 | [5] -0.009

MLF1 isoform 3 (UniProt P58340)
inactive: [1] 0.026

MGA (UniProt Q8IWI9)
inactive: [1] 0 | [2] 0.068 | [3] -0.008 | [4] -0.061 | [5] -0.08
